Among the data in EP3632934A1 (F. Hoffmann-La Roche AG, dated 2020) are binding values, retold here.

Substitutions are numbered along the chain they refer to. These are yes or no findings as the source states them, for the method shown. Some binding calls cover weakened binding; strength is not graded here.

The target of assay [1] is T1, human OX40 (Sino Biological Inc) (human, UniProt P43489 29-216).
T1 construct: Bought soluble protein used as SPR analyte; also called huOX40
T1 sequence: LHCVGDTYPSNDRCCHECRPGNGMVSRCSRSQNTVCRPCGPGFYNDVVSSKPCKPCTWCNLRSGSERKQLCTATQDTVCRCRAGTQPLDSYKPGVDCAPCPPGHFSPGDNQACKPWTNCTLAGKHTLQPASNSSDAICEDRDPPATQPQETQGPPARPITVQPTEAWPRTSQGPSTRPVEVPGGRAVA
The assay can be described thus: SPR, Biacore.

Assay [2] concerns the target T1, human OX40 (Sino Biological Inc). The assay can be described thus: SPR, Biacore 3000; antibody captured by anti-human Fc, huOX40 injected; ka column.
The target is the same in assay [3]. The assay can be described thus: SPR, Biacore 3000; antibody captured by anti-human Fc, huOX40 injected; kd column.

B1: 1D2.gr.1 (antibody, V domains shown)
VH: EVQLVESGPGLVKPSETLSLTCTVSGFSLTDYGVLWIRQPPGKGLEWIGMIWSGGTTDYNAAFISRVTISVDTSKNQFSLKLSSVTAADTAVYYCVREEMDYWGQGTLVTVSS
VL: DIQMTQSPSSLSASVGDRVTITCRASQDISNFLNWYQQKPGKAPKLLIYYTSRLHSGVPSRFSGSGSGTDFTLTISSLQPEDFATYYCQQGNTLPWTFGQGTKVEIK
For B1, the binding entry in assay [1], in assay [2] and in assay [3] was “binds” throughout.

B2: 1D2.gr.3 (antibody, V domains shown)
VH: B1 VH with I37V, I48L, V67L, V71K, F78V
VL: B1 VL
As to B2, the binding entry in assay [1] is reported as “binds”.

B3: 1D2.gr.2 (antibody, V domains shown)
VH: B1 VH with V71K, F78V
VL: B1 VL
Turning to B3, the binding result in assay [1] was “binds”.
